The exact form of at least one protein or probe is not confirmed. Where a protein sequence is shown, tags need not be part of it.

This data set addresses T1, Tsal1 (Glossina morsitans morsitans) (UniProt D3TS87).
T1 sequence (looked up, limits assumed): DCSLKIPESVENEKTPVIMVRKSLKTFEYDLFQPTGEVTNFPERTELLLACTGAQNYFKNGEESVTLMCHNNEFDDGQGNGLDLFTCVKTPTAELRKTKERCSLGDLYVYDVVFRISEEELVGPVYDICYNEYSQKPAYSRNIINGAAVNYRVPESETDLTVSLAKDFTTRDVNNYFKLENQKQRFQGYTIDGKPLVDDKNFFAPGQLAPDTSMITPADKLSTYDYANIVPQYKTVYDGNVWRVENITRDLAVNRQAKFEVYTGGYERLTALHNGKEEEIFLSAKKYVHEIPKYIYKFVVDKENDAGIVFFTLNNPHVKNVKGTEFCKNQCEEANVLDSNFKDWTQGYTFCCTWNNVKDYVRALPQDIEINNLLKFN
The data set is described as follows: SPR. The settings on record: ka 3.2E+04, kd 2.0E-03; SPR (BIAcore), 50 mM sodium acetate pH 4.0, 150 mM NaCl, 3.5 mM EDTA, 0.005% Tween-20, 30 ul/min, Langmuir 1:1 fit; temperature not stated; recombinant protein; protein details: pelB leader (pET22b), His tag implied by Ni-NTA; single-stranded DNA. Background: Surface plasmon resonance follows binding to a sensor surface in real time, without labels.

On to “CACTAGGTCTGATCAGGCAACGTTG [ssDNA 25nt A/T/G/C mixed]”, for which the Kd – broadly, a measure of binding affinity in units of concentration – was 64 nM.

(Values after publication PMC3479092, “Tsetse Salivary Gland Proteins 1 and 2 Are High Affinity Nucleic Acid Binding Proteins with Residual Nuclease Activity”.)
